Data published in PMC3092770.
No constants are given. Whether binding was seen depends on the method and setting. For part of these data: Binding can be weak; no strength is given. Where a sequence is shown, tags or fusion partners need not be part of it. For part of these data: In cells and extracts the contact can be indirect. Values belong to the molecule of their own block, whether it stands above or below them.

What was measured:
[1] = target: T1, HA-tagged Aurora-A(1–131) (human) (UniProt O14965); experiment: co-IP; HEK293T cells co-transfected with FLAG-tagged PUM2 (wild type or Δ434–740) and HA-tagged Aurora-A (whole or fragments); immunoprecipitation with anti-HA antibody, immunoblot with anti-FLAG
T1 sequence: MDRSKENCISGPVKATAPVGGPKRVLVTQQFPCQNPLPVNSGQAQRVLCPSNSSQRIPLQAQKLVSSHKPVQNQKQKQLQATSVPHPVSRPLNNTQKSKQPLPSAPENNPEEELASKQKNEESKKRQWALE

[2] = target: T2, HA-tagged Aurora-A(1–362) (human) (UniProt O14965); experiment: as above
T2 sequence: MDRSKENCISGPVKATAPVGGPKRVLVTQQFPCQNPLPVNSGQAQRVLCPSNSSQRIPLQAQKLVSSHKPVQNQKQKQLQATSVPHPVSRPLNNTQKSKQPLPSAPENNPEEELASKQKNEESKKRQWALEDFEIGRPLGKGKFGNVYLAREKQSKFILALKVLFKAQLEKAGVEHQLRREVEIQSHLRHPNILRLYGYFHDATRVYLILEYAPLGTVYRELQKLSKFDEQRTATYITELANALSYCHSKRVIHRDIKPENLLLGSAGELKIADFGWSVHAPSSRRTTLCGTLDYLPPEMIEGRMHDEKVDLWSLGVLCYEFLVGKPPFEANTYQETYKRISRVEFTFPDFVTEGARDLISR

[3] = target: GST-PUM2 fusion protein (human); experiment: pull-down; GST-PUM2 (40 µg) or GST on glutathione-Sepharose beads incubated with 100 µg purified His-tagged Aurora-A (wild type or K162I) in binding buffer at 4°C overnight; immunoblot with anti-His; both purified

binding [1]: no binding | binding [2]: no binding
Molecule: FLAG-tagged PUM2 (Human Pumilio homology protein 2), wild type

binding [3]: binds weakly
B1: His-tagged kinase-inactive Aurora-A mutant protein (Aurora-A-K162I) (enzyme, UniProt O14965 1-403)
chain: MDRSKENCISGPVKATAPVGGPKRVLVTQQFPCQNPLPVNSGQAQRVLCPSNSSQRIPLQAQKLVSSHKPVQNQKQKQLQATSVPHPVSRPLNNTQKSKQPLPSAPENNPEEELASKQKNEESKKRQWALEDFEIGRPLGKGKFGNVYLAREKQSKFILALIVLFKAQLEKAGVEHQLRREVEIQSHLRHPNILRLYGYFHDATRVYLILEYAPLGTVYRELQKLSKFDEQRTATYITELANALSYCHSKRVIHRDIKPENLLLGSAGELKIADFGWSVHAPSSRRTTLCGTLDYLPPEMIEGRMHDEKVDLWSLGVLCYEFLVGKPPFEANTYQETYKRISRVEFTFPDFVTEGARDLISRLLKHNPSQRPMLREVLEHPWITANSSKPSNCQNKESASKQS
